For 1 substance, binding results are on record in publication PMC3443672, “The solution structure of the prototype foamy virus RNase H domain indicates an important role of the basic loop in substrate binding”.

The target in this experiment is PFV RNase H-(Q591-N751) (prototype foamy virus (PFV)) (UniProt P14350). Description: 15N NMR spin relaxation (R1, R2, rotational correlation time); 1 mM and 0.4 mM 15N-labelled RNase H; 5 mM Na-phosphate pH 7.0, 100 mM NaCl, 0.5 mM DTT, 6 mM MgCl2, 10 % D2O; 298 K; 600 MHz; tc 12.4 ns, isotropic model; both purified.

These are yes or no findings as the source states them, for the method shown.

Regarding “PFV RNase H-(Q591-N751) (from UniProt P14350 591-751) (domain or fragment)”, the binding entry is “no binding (tested: 1 mM and 0.4 mM)”.
